{"source": "patent US7405206B2", "about": "“Anti-inflammatory androstane derivatives” (Glaxo Group Limited, priority 2001, dated 2008)", "tested_on": "A549 cells stably transfected with a reporter gene containing the NF-κB responsive elements from the ELAM gene promoter coupled to sPAP", "assay": "Functional in vitro assay of glucocorticoid agonist activity (NF-κB/ELAM-sPAP reporter, TNF stimulated)", "type": "cell-based", "details": "compound 1 hour at 37° C., then TNF 10 ng/ml for 16 hours", "protocol": "Pharmacological activity was assessed in a functional in vitro assay of glucocorticoid agonist activity which is generally predictive of anti-inflammatory or anti-allergic activity in vivo.\nThe functional assay was based on that described by K. P. Ray et al., Biochem J. (1997), 328, 707-715. A549 cells stably transfected with a reporter gene containing the NF-κB responsive elements from the ELAM gene promoter coupled to sPAP (secreted alkaline phosphatase) were treated with test compounds at appropriate doses for 1 hour at 37° C. The cells were then stimulated with tumour necrosis factor (TNF, 10 ng/ml) for 16 hours, at which time the amount of alkaline phosphatase produced is measured by a standard colourimetric assay. Dose response curves were constructed from which EC50 values were estimated.", "note": "Some of these results come from one statement about several compounds together. At least one structure is not confirmed: it was looked up by name or label, or the drawing left a doubt.", "data": [{"molecule": "CC1CC2C3CC(F)C4=CC(=O)C=CC4(C)C3(F)C(O)CC2(C)C1(OC(=O)c1csnn1)C(=O)SC1CCOC1=O", "note": "(stereo not drawn) [Example 27, 6α,9α-Difluoro-11β-hydroxy-16α-methyl-3-oxo-17α-[(1,2,3-thiadiazole-4-carbonyl)oxy]-androsta-1,4-diene-17β-carbothioic acid S-(2-oxo-tetrahydro-furan-3S-yl)ester]", "values": [{"measurement": "EC50", "result": "< 20", "unit": "nM"}]}, {"molecule": "Cc1cc(C(=O)OC2(C(=O)SC3CCOC3=O)C(C)CC3C4CC(F)C5=CC(=O)C=CC5(C)C4(F)C(O)CC32C)no1", "note": "(stereo not drawn) [Example 23, 6α,9α-Difluoro-11β-hydroxy-16α-methyl-17α-[(5-methylisoxazole-3-carbonyl)oxy]-3-oxo-androsta-1,4-diene-17β-carbothioic acid S-(2-oxo-tetrahydro-furan-3S-yl)ester]", "values": [{"measurement": "EC50", "result": "< 20", "unit": "nM"}]}, {"molecule": "CC1CC2C3CC(F)C4=CC(=O)C=CC4(C)C3(F)C(O)CC2(C)C1(OC(=O)c1ccno1)C(=O)SC1CCOC1=O", "note": "(stereo not drawn) [Example 9, 6α,9α-Difluoro-11β-hydroxy-17α-[(isoxazole-5-carbonyl)oxy]-16α-methyl-3-oxo-androsta-1,4-diene-17β-carbothioic acid S-(2-oxo-tetrahydro-furan-3S-yl)ester]", "values": [{"measurement": "EC50", "result": "< 20", "unit": "nM"}]}, {"molecule": "CC1CC2C3CC(F)C4=CC(=O)C=CC4(C)C3(F)C(O)CC2(C)C1(OC(=O)c1ccc(Br)o1)C(=O)SC1CCOC1=O", "note": "(stereo not drawn) [Example 16, 17α-[(5-Bromofuran-2-carbonyl)oxy]-6α,9α-difluoro-11β-hydroxy-16α-methyl-3-oxo-androsta-1,4-diene-17β-carbothioic acid S-(2-oxo-tetrahydro-furan-3S-yl) ester]", "values": [{"measurement": "EC50", "result": "< 20", "unit": "nM"}]}, {"molecule": "Cc1occc1C(=O)OC1(C(=O)SC2CCOC2=O)C(C)CC2C3CC(F)C4=CC(=O)C=CC4(C)C3(F)C(O)CC21C", "note": "(stereo not drawn) [Example 19, 6α,9α-Difluoro-11β-hydroxy-16α-methyl-17α-[(2-methylfuran-3-carbonyl)oxy]-3-oxo-androsta-1,4-diene-17β-carbothioic acid S-(2-oxo-tetrahydro-furan-3S-yl)ester]", "values": [{"measurement": "EC50", "result": "< 20", "unit": "nM"}]}, {"molecule": "COc1cscc1C(=O)OC1(C(=O)SC2CCOC2=O)C(C)CC2C3CC(F)C4=CC(=O)C=CC4(C)C3(F)C(O)CC21C", "note": "(stereo not drawn) [Example 26, 6α,9α-Difluoro-11β-hydroxy-17α-[(4-methoxy-thiophene-3-carbonyl)oxy]-16α-methyl-3-oxo-androsta-1,4-diene-17β-carbothioic acid S-(2-oxo-tetrahydro-furan-3S-yl)ester]", "values": [{"measurement": "EC50", "result": "< 20", "unit": "nM"}]}, {"molecule": "CC1CC2C3CC(F)C4=CC(=O)C=CC4(C)C3(F)C(O)CC2(C)C1(OC(=O)c1cncs1)C(=O)SC1CCOC1=O", "note": "(stereo not drawn) [Example 28, 6α,9α-Difluoro-11β-hydroxy-16α-methyl-3-oxo-17α-[(1,3-thiazole-5-carbonyl)oxy]-androsta-1,4-diene-17β-carbothioic acid S-(2-oxo-tetrahydro-furan-3S-yl) ester]", "values": [{"measurement": "EC50", "result": "< 20", "unit": "nM"}]}, {"molecule": "CC1CC2C3CC(F)C4=CC(=O)C=CC4(C)C3(F)C(O)CC2(C)C1(OC(=O)c1cscn1)C(=O)SC1CCOC1=O", "note": "(stereo not drawn) [Example 22, 6α,9α-Difluoro-11β-hydroxy-16α-methyl-3-oxo-17α-[(3-thiazole-4-carbonyl)oxy]-androsta-1,4-diene-17β-carbothioic acid S-(2-oxo-tetrahydro-furan-3S-yl) ester]", "values": [{"measurement": "EC50", "result": "< 20", "unit": "nM"}]}, {"molecule": "Cc1cc(C(=O)OC2(C(=O)SC3CCOC3=O)C(C)CC3C4CC(F)C5=CC(=O)C=CC5(C)C4(F)C(O)CC32C)c(C)o1", "note": "(stereo not drawn) [Example 17, 6α,9α-Difluoro-17α-[(2,5-dimethylfuran-3-carbonyl)oxy]-11β-hydroxy-16α-methyl-3-oxo-androsta-1,4-diene-17β-carbothioic acid S-(2-oxo-tetrahydro-furan-3S-yl)ester]", "values": [{"measurement": "EC50", "result": "< 20", "unit": "nM"}]}, {"molecule": "CC1CC2C3CC(F)C4=CC(=O)C=CC4(C)C3(F)C(O)CC2(C)C1(OC(=O)c1sccc1Cl)C(=O)SC1CCOC1=O", "note": "(stereo not drawn) [Example 18, 17α-[(3-Chlorothiophene-2-carbonyl)oxy]-6α,9α-difluoro-11β-hydroxy-16α-methyl-3-oxo-androsta-1,4-diene-17β-carbothioic acid S-(2-oxo-tetrahydro-furan-3S-yl)ester]", "values": [{"measurement": "EC50", "result": "< 20", "unit": "nM"}]}, {"molecule": "C[C@@H]1C[C@H]2[C@@H]3C[C@H](F)C4=CC(=O)C=C[C@]4(C)[C@]3(F)[C@@H](O)C[C@]2(C)[C@@]1(OC(=O)c1ccco1)C(=O)SC1CCOC1=O", "note": "(stereo partly drawn) [Example 2, 6α, 9β-Difluoro-17α-[(2-furanylcarbonyl)oxy]-11β-hydroxy-16α-methyl-3-oxo-androsta-1,4-diene-17β-carbothioic acid S-(2-oxo-tetrahydro-furan-3-yl)ester]", "values": [{"measurement": "EC50", "result": "< 20", "unit": "nM"}]}, {"molecule": "CC1CC2C3CC(F)C4=CC(=O)C=CC4(C)C3(F)C(O)CC2(C)C1(OC(=O)c1ccns1)C(=O)SC1CCOC1=O", "note": "(stereo not drawn) [Example 30, 6α,9α-Difluoro-11β-hydroxy-17α-[(isothiazole-5-carbonyl)oxy]-16α-methyl-3-oxo-androsta-1,4-diene-17β-carbothioic acid S-(2-oxo-tetrahydro-furan-3S-yl) ester]", "values": [{"measurement": "EC50", "result": "< 20", "unit": "nM"}]}, {"molecule": "Cc1ccc(C(=O)OC2(C(=O)SC3CCOC3=O)C(C)CC3C4CC(F)C5=CC(=O)C=CC5(C)C4(F)C(O)CC32C)s1", "note": "(stereo not drawn) [Example 8, 6α,9α-Difluoro-11β-hydroxy-16α-methyl-17α-[(5-methylthiophene-2-carbonyl)oxy]-3-oxo-androsta-1,4-diene-17β-carbothioic acid S-(2-oxo-tetrahydro-furan-3S-yl)ester]", "values": [{"measurement": "EC50", "result": "< 20", "unit": "nM"}]}, {"molecule": "Cc1cc(C(=O)OC2(C(=O)SC3CCOC3=O)C(C)CC3C4CC(F)C5=CC(=O)C=CC5(C)C4(F)C(O)CC32C)on1", "note": "(stereo not drawn) [Example 31, 6α,9α-Difluoro-11β-hydroxy-16α-methyl-17α-[(3-methylisoxazole-5-carbonyl)oxy]-3-oxo-androsta-1,4-diene-17β-carbothioic acid S-(2-oxo-tetrahydro-furan-3S-yl)ester]", "values": [{"measurement": "EC50", "result": "< 20", "unit": "nM"}]}, {"molecule": "CC1CC2C3CCC4=CC(=O)C=CC4(C)C3(F)C(O)CC2(C)C1(OC(=O)c1ccco1)C(=O)SC1CCOC1=O", "note": "(stereo not drawn) [Example 7, 9α-Fluoro-17α[(2-furanylcarbonyl)oxy]-11β-hydroxy-16β-methyl-3-oxo-androsta-1,4-diene-17β-carbothioic acid S-(2-oxo-tetrahydro-furan-3S-yl)ester]", "values": [{"measurement": "EC50", "result": "< 20", "unit": "nM"}]}, {"molecule": "CC1CC2C3CC(F)C4=CC(=O)C=CC4(C)C3(F)C(O)CC2(C)C1(OC(=O)c1ccoc1)C(=O)SC1CCOC1=O", "note": "(stereo not drawn) [Example 3, 6α,9α-Difluoro-17α-[(3-furanylcarbonyl)oxy]-11β-hydroxy-16α-methyl-3-oxo-androsta-1,4-diene-17β-carbothioic acid S-(2-oxo-tetrahydro-furan-3S-yl)ester]", "values": [{"measurement": "EC50", "result": "< 20", "unit": "nM"}]}, {"molecule": "CC1CC2C3CC(F)C4=CC(=O)C=CC4(C)C3(F)C(O)CC2(C)C1(OC(=O)c1ccc(Cl)s1)C(=O)SC1CCOC1=O", "note": "(stereo not drawn) [Example 10, 17α-[(5-Chlorothiophene-2-carbonyl)oxy]-6α,9α-difluoro-11β-hydroxy-16α-methyl-3-oxo-androsta-1,4-diene-17β-carbothioic acid S-(2-oxo-tetrahydro-furan-3S-yl)ester]", "values": [{"measurement": "EC50", "result": "< 20", "unit": "nM"}]}, {"molecule": "CC1CC2C3CC(F)C4=CC(=O)C=CC4(C)C3(F)C(O)CC2(C)C1(OC(=O)c1ccsc1)C(=O)SC1CCOC1=O", "note": "(stereo not drawn) [Example 5, 6α,9α-Difluoro-11β-hydroxy-16α-methyl-3-oxo-17α-[(3-thiophenylcarbonyl)oxy]-androsta-1,4-diene-17β-carbothioic acid S-(2-oxo-tetrahydro-furan-3S-yl)ester]", "values": [{"measurement": "EC50", "result": "< 20", "unit": "nM"}]}]}
